Drawing on publication PMC4010471, this text covers binding for three substances.

By UniProt entry, the sequences of proteins in these tests, tags left out.
UniProt Q9UBL3: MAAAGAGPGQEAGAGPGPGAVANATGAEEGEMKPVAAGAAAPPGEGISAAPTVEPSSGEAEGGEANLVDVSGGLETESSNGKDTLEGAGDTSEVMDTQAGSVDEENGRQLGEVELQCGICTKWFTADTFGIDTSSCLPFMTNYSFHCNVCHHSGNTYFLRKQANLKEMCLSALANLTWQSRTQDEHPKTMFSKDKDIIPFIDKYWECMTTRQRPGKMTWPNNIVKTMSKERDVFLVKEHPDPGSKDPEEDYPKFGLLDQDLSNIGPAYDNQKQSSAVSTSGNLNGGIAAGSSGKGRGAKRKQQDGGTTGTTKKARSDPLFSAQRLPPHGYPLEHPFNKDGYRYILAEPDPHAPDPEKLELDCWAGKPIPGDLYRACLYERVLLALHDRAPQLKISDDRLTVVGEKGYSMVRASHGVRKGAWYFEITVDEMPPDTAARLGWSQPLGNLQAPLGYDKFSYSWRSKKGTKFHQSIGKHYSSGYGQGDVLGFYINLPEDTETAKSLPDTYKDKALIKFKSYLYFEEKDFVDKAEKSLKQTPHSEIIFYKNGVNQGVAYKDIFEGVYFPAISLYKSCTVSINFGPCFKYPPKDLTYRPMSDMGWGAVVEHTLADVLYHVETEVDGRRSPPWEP
UniProt Q6ZW49: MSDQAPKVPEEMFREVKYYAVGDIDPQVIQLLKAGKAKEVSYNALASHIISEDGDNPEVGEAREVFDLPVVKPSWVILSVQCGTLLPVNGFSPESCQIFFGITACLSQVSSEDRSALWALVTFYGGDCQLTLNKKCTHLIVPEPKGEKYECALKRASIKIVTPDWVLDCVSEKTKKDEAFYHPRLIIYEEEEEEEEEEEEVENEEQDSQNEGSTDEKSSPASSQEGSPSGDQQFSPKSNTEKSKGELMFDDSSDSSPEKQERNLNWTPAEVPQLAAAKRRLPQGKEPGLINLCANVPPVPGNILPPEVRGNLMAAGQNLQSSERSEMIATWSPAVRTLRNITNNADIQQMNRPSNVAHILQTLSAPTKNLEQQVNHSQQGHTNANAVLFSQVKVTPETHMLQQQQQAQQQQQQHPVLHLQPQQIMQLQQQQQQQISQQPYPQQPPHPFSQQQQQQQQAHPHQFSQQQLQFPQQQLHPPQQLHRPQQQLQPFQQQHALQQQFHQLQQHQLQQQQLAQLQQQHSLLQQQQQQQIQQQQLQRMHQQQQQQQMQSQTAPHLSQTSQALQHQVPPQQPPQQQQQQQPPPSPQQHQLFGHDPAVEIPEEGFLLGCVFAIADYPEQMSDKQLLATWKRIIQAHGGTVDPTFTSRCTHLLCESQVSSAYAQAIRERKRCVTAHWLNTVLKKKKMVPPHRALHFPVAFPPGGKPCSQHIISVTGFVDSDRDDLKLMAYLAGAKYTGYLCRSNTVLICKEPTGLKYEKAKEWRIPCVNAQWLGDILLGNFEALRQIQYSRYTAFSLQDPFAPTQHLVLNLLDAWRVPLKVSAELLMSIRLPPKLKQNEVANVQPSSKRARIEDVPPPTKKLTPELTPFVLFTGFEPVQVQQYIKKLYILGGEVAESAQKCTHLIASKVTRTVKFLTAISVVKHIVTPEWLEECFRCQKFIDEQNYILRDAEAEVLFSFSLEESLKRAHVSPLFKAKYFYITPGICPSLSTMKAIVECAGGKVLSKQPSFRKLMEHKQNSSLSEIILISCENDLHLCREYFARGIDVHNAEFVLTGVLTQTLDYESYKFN
UniProt Q15291: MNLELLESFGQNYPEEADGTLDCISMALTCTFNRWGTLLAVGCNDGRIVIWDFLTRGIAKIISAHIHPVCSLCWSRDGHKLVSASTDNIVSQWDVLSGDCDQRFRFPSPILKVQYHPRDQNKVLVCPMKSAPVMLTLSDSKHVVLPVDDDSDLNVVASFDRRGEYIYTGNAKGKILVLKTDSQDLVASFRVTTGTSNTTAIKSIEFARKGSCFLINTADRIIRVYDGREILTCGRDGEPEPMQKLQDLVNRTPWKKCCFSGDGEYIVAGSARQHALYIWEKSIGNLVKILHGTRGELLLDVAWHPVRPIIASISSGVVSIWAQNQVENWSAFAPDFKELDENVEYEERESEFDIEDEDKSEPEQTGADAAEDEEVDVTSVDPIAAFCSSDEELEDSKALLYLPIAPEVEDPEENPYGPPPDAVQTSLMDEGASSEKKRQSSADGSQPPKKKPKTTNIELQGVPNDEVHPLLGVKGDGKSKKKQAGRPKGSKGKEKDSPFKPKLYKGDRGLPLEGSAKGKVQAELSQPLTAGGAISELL

Results are given in words; binding and its absence hold for the method and conditions named. Binding seen in cells or lysates may run through a third protein. These calls come from enrichment with a bait or labelling near it, and not all partners need be listed.

The target of the test is Flag-HA-UTX (UniProt O15550). The test is described as follows: affinity purification with mass spectrometry; tandem affinity purification (anti-Flag M2 agarose, Flag peptide elution, then HA beads, HA peptide elution) from nuclear extracts of HEK293 cells stably expressing Flag-HA-JMJD3 or Flag-HA-UTX; buffer A with 20 mM Tris-HCl pH 8.0, 300 mM NaCl; 4 °C; co-purified proteins analysed by mass spectrometry.
Consider ASH2L (from UniProt Q9UBL3 1-628), for which the binding result is “binds”.

As to PTIP (from UniProt Q6ZW49 1-1069), the binding result is “binds”. To RBBP5 (from UniProt Q15291 1-538) belongs “binds”.
